# Measured values reported in patent publication US5324832A, “Muscarinic antagonists” (priority 1991, dated 1994).
# Some entries share one result that the patent states for a list of compounds.
# Tested on: m1 through m4 muscarinic receptors
# Test: Displacement of [3H]NMS from muscarinic receptors (m1-m4), subtype not singled out
# Assay type: binding
# Conditions: in words
# From the text: The analogues were screened in binding assays using membranes from cells or tissues containing primarily single subtypes of m1 through m4 muscarinic receptors. Transfected A9L cells were used as a source of homogeneous populations of m1, m3, and m4 receptors. See Jones, S. V.; Barker, J. L.; Buckley, N. J.; Bonner, T. I; Brann, M. R., Mol. Pharmacol., 1988, 34, 421, which is specifically incorporated by reference herein. Rat heart tissue was the source of m2 muscarinic receptors.
# A crude membrane fraction was obtained as follows. Confluent cultures were rinsed three times with phosphate-buffered saline, and lysed in a solution of 2 mM Tris-HCl (pH 7.1) and 1 mM EDTA for 30 min at 2° C. The cells were harvested by scraping and homogenized on a Polytron (10 sec, 75% mix).
# Nuclei were removed in a low speed centrifugation (400 × g, 5 min) and a crude membrane preparation was obtained by centrifugation of the supernatant at 50,000 × g for 20 min. The resulting pellet was resuspended in the lysis buffer and recentrifuged at 50,000 × g for 20 min. Membranes were stored frozen at -70° C. until needed. […]
# The incubation was terminated by rapid filtration over GF/B filters using a Brandel cell harvester. The filters were washed three times with ice-cold 0.9% NaCl, equilibrated in scintillation counting fluid and counted on a Beckmann LS 5801 liquid scintillation counter at 47% efficiency. […]
row,Structure (SMILES),muscarinic antagonist activity
1,O=C1Nc2cccnc2N(C(=O)CN2CCN(C(=S)Nc3ccccc3)CC2)c2ccccc21 [Compound 21],totally inactive as muscarinic antagonists
2,"CS(=O)(=O)N1CCN(CC(=O)N2c3ccccc3C(=O)Nc3cccnc32)CC1 [Compound 20, 5,11-dihydro-11-[(4-methanesulfonyl-1-piperazinyl)acetyl]-6H-pyrido[2,3-b][1,4]benzodiazepine-6-one]",totally inactive as muscarinic antagonists
